Library screen at single concentrations

Values are the deposited “Percent Effect”, in %.
How 0% and 100% were set is not recorded. Most values in the screen are low, and negative values occur.
The compounds are a random part of those screened.
Two or more numbers in one place are separate tests of the same structure; such repeats can differ widely.

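Phenotypic screen: M. tuberculosis growth, cholesterol and DPPC medium, 4 days; the read-out is not stated. Compounds at 50 µM. The record gives no direction; compounds that gave an IC50 in retests scored well above the rest, so higher reads as more growth inhibition. About 69,000 compounds were tested under these conditions; 0.54% (about 370) showed 50% or more at least once.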

structure,Percent Effect
O=C(N1CCOCC1)N1CCN(CC(O)c2ccc(F)cc2)CC1 (centres undefined),-3.848
CN(C)C(=O)CCC[S+]([O-])Cc1ccc(Cl)c(Cl)c1 (centres undefined),0.6143 and 22.82
CN(Cc1cn2c(n1)CN(C1CCOC1)CC2)Cc1ccco1.O=C(O)C(F)(F)F.O=C(O)C(F)(F)F (centres undefined),6.144
CC(=O)N1CC[C@H](c2nnc(Cc3c[nH]c4ccccc34)o2)C1,3.216
CC(C)CN1CCN(C)C2(CCN(c3nccs3)CC2)C1=O.O=C(O)C(F)(F)F,-13.09
COCCN1CCC2(CCCN(Cc3ccoc3)C2)C1=O.O=C(O)C(F)(F)F (centres undefined),-7.298 and -5.766
O=C(NCc1cc2n(n1)CCCN(Cc1ccc(CO)o1)C2)C1CCC1,-0.6138 and 0.5196
CCCn1cc(CN2CCCC2c2nccc(CN(C)C)n2)cn1 (centres undefined),-7.859
COC(=O)C(O)C1CCN(Cc2cccc(-n3cccn3)c2)CC1 (centres undefined),-14.28
CC1=C(CCN2CCCC(O)C2)C(C)(C)CCC1 (centres undefined),7.568
CCN(CC1CN(Cc2c(C)noc2C)CCO1)c1cccnn1 (centres undefined),-15.09 and -13.29
CCCc1nc(NCCCOCC)c2c(n1)c(C)nn2CC,-25.93
CC(C)CN1CC(C(=O)NCCc2c[nH]cn2)CC1=O (centres undefined),14.01
Cc1cnn(CC2CCCN2C(=O)c2sccc2-n2cnnn2)c1 (centres undefined),7.544
CC(C)N(CCCNC(=O)C1CCCN(C(N)=O)C1)S(C)(=O)=O (centres undefined),-17.17
CC(=O)Nc1ncc(S(=O)(=O)Nc2ccccc2F)s1,0.7851
Cc1c(C(=O)N2CCC(C(O)c3ccc(Cl)cc3)CC2)cnn1C (centres undefined),-2.98
CCCOc1cccc(CNC(=O)CN2CCN(C)CC2C)c1 (centres undefined),-6.852
CCC(CO)N(Cc1ccccn1)C(=O)c1ncccc1C (centres undefined),1.223 and -23.68
COc1c(CNCc2cccc(C(=O)N(C)C)c2)c(C)nn1C,-8.974
Cc1nc(COc2ccc(OC(C)C(N)=O)cc2)oc1C (centres undefined),2.573 and 12.36
Cc1noc(C)c1CN1CCCC(c2noc(C3CC3)n2)C1 (centres undefined),-4.933
CCN(CCCNc1ncnc2cc(F)c(F)cc12)S(C)(=O)=O,11.91
CC(C)[C@H](N)C(=O)N1CCCC(C2=Nc3ccccc3S(=O)(=O)N2)C1.Cl (some centres undefined),-5.34 and -9.507
Cc1cccc(C2(NC(=O)CCCn3cncn3)CCCC2)c1,-10.13
CCOC(=O)N1CC(=O)N(CCc2ccccc2)CC(O)C1 (centres undefined),-13.74
CC(=O)N(Cc1ncc(C)o1)C1CCN(Cc2cc(C)on2)C1 (centres undefined),-21.29
CCN1CCN(Cc2nc(C)no2)CC1,-2.542
CN(C)c1nc(N2CCCC2)nc2c1CCN(Cc1nccn1C)CC2.O=C(O)C(F)(F)F,-3.865
CCC(CO)N(Cc1ccccn1)C(=O)c1cccc(C#N)c1 (centres undefined),2.097 and -6.335
CCn1ccc(NC(=O)CCn2nc(C)c3ccccc32)n1,1.978
COCc1nc(N(C)C)ncc1C(=O)Nc1cc(C)cc(C)c1,9.616
Cc1nn(C)c(C)c1OCC(=O)N1CCCc2c(F)ccc(F)c21,0.3377
NCC(c1ccccc1)N1CCc2sccc2C1 (centres undefined),11.32
COCCCNc1ncnc2c1CCN(C(=O)CC1C=CCC1)CC2 (centres undefined),-1.066
Cc1csc2ncc(-c3ccnc(NC4CCOCC4)n3)c(=O)n12,24.27
CNC(=O)Cn1c(CO)cnc1SCc1ccccc1Cl,-20.1
O=C(c1ccncc1)N1CCN(C(=O)c2coc3ccccc23)CC1,10.23
CN(C)CCN1C(=O)CCC12CCN(C(=O)CC1CC1)CC2,-0.4452 and -2.071
[H][C@@]12OCCN(C(=O)c3ccc(C)o3)[C@@]1([H])CC[C@H]2OCC1CCOCC1,-4.916
CCn1ccnc1CN(C)C1CCCN(CCCc2ccccc2)C1 (centres undefined),-10.84 and -13.18
O=C(Nc1cccnc1)Nc1cccc(CN2CCC(O)CC2)c1,-1.778 and 5.789
CCCc1nncn1-c1cc(OC)ccc1OC,-1.306
CN(Cc1nnc(C2CC2)n1C)S(=O)(=O)c1ccccc1F,3.472
O=C(O)C(F)(F)F.[H][C@@]12CN(c3cc(OC)ncn3)CCC[C@]1(C(=O)O)CN(C(C)C)C2,15.45 and -6.819
COc1cc(CNC(=O)COC2CCCCC2)ccc1O,4.844
Cc1ccnc(CC(C)N(C)c2cc(CCN)nc(C)n2)c1 (centres undefined),-1.588
CS(=O)(=O)NCC1CCCN(C(=O)COc2ccc(F)cc2)C1 (centres undefined),6.062
CCOCCCC(=O)N(C)C(c1cccc(F)c1)c1ccccn1 (centres undefined),-2.206
CC(C)[C@@H]1CN(C(=O)C2(c3ccccc3)CCN(C)CC2)C[C@H]1N(C)C,17.34
Cc1cc(C2CCCN(C(=O)CCc3cscn3)C2)n[nH]1 (centres undefined),-7.386
CCCN1CCC(NC(=O)c2ccnc(SCC)c2)CC1,-1.807
Nc1ccnc(N2CCC(c3nccn3CC3CC3)CC2)n1,-13.52
CN(C)C(=O)N1CC[C@@H](O)[C@@H]1Cc1cnn(C)c1,-51.49 and -5.593
Cc1nc(-c2ccc(C(=O)O)cc2)cc(C2CCCN(C(C)C)C2)n1 (centres undefined),-18.48
Fc1cccnc1N1CCOCC2(CCCNC2)C1 (centres undefined),-9.344
O=C(C1CCCC1)N1CCOc2cccc(F)c21,-5.802
CC(C)C(Sc1nncn1C1CC1)C(=O)NCc1cccnc1 (centres undefined),1.266
O=C(c1ccncc1)N1CCCC1c1nc(O)cc(-c2ccccn2)n1 (centres undefined),2.722
Cc1cnc(C(=O)N2CCc3ncnc(-c4cnn(C)c4)c3CC2)cn1,-12.62
O=C(c1cc[nH]n1)N1CCCC1C1CCN(Cc2ccccc2)CC1 (centres undefined),-5.579
CCSCCC(C)N(C)C(=O)c1cc(C)on1 (centres undefined),4.811
Cc1ccc(N2CCCC(NCCCS(C)(=O)=O)C2)nn1 (centres undefined),-20.12
Cc1nc(CC(=O)N2CCCC2c2nc(C(C)C)no2)cs1 (centres undefined),-7.194 and 0.8242
CCc1onc(C)c1C(=O)N1CCN(c2ncc3c(n2)CCOC3)CC1.Cl,-9.182 and -17.37
Cc1ccc(CN2CCC3(CC2)C(c2ccccc2)CC(=O)N3C)o1.O=C(O)C(F)(F)F (centres undefined),-6.474
CN(CC(=O)N1CCCCC1Cn1cccn1)C1CC1 (centres undefined),-31.18
Cc1cnc(CN2CCC(N(C)Cc3noc(C4CC4)n3)C2)o1 (centres undefined),-21.58
Cc1nc(N2CCOCC2)nc2c1CCN(C(=O)C1CC1)CC2,-20.14
Cn1cc(C2CCCN2C(=O)c2cnc(-c3ccccn3)s2)cn1 (centres undefined),-4.919 and 12.12
Nc1nc(C2CCN(C(=O)c3cncs3)CC2)cs1,-18.28
CC(C)c1noc(CCCC(=O)NC(C)c2nnc3n2CCC3)n1 (centres undefined),-6.537
Cc1cc(-c2cnc(N3CCCC(C)C3)nc2C(C)C)on1 (centres undefined),-9.327 and 12.92

Once more, the final 6:

structure,Percent Effect
Cc1cnc(CN2CCC(N(C)Cc3noc(C4CC4)n3)C2)o1 (centres undefined),-21.58
Cc1nc(N2CCOCC2)nc2c1CCN(C(=O)C1CC1)CC2,-20.14
Cn1cc(C2CCCN2C(=O)c2cnc(-c3ccccn3)s2)cn1 (centres undefined),-4.919 and 12.12
Nc1nc(C2CCN(C(=O)c3cncs3)CC2)cs1,-18.28
CC(C)c1noc(CCCC(=O)NC(C)c2nnc3n2CCC3)n1 (centres undefined),-6.537
Cc1cc(-c2cnc(N3CCCC(C)C3)nc2C(C)C)on1 (centres undefined),-9.327 and 12.92

Measurements from “University of Dundee, Small-Polar-MMV Screening Library” (2021), ChEMBL document CHEMBL3988442.